From paper PMC7515736
No constants are given. Whether binding was seen depends on the method and setting. For some of these results: Binding seen in cells or lysates may run through a third protein. Some results given as binding are weak or reduced against the parent protein; the word gives no strength.

By UniProt entry, the sequences of proteins in these tests, tags left out.
UniProt P17839: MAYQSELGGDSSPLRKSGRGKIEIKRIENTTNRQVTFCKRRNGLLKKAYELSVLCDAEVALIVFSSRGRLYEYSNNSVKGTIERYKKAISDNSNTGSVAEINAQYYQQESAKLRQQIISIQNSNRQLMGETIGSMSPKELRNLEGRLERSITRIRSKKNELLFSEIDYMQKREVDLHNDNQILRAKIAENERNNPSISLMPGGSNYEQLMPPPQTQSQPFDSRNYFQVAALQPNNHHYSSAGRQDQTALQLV

Tests used:
[1] = target: SEP3^Δtet, SEP3 splice variant with deletion of amino acids 161-174, SEP3^Δtet-3xFLAG (Arabidopsis thaliana) (UniProt O22456); test: native gel or EMSA; EMSA with Cy5-labelled 96-bp KNU promoter probes with two CArG boxes of varied spacing; proteins co-produced in wheat germ TnT without further purification; complexes seen as tetramer or dimer bands on DNA
[2] = target: …3 (SEP3), SEP3-3xFLAG (Arabidopsis thaliana) (UniProt O22456); test: as above
[3] = target: SEP3^Δtet, SEP3 splice variant with deletion of amino acids 161-174, SEP3^Δtet-3xFLAG (Arabidopsis thaliana) (UniProt O22456); test: co-IP; sequential immunoprecipitation of co-translated proteins from a 50 ul wheat germ TnT reaction: anti-FLAG magnetic beads (1 h, room temperature, PBS with 0.005% NP40 and proteinase inhibitors), elution with 3xFLAG peptide, then anti-c-Myc magnetic beads; Western blots after each step
[4] = target: …3 (SEP3), SEP3-3xFLAG (Arabidopsis thaliana) (UniProt O22456); test: as above

Measured: binding

AGAMOUS (AG), AG-5xMyc (from UniProt P17839 1-252)
binds: all assays above
